Our source for the binding values is PMC9513469.

Chains of the proteins cited; added tags and fusions are not shown.
UniProt Q94BT6: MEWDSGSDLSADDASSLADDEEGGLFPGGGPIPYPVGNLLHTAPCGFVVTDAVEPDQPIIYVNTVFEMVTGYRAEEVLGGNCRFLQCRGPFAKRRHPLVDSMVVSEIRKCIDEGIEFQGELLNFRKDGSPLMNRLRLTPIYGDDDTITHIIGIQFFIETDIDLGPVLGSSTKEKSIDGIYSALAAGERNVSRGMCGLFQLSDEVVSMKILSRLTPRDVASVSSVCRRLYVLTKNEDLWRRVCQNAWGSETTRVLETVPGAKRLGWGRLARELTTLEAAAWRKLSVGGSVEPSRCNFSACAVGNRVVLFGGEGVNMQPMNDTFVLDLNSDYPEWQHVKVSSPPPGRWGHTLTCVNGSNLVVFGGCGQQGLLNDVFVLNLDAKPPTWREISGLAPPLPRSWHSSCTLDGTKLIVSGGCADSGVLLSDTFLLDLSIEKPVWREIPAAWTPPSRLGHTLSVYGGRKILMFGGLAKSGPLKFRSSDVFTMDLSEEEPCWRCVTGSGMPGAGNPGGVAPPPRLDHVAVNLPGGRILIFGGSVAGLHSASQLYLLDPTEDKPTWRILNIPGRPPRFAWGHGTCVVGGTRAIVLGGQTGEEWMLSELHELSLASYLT
UniProt Q9SQI2: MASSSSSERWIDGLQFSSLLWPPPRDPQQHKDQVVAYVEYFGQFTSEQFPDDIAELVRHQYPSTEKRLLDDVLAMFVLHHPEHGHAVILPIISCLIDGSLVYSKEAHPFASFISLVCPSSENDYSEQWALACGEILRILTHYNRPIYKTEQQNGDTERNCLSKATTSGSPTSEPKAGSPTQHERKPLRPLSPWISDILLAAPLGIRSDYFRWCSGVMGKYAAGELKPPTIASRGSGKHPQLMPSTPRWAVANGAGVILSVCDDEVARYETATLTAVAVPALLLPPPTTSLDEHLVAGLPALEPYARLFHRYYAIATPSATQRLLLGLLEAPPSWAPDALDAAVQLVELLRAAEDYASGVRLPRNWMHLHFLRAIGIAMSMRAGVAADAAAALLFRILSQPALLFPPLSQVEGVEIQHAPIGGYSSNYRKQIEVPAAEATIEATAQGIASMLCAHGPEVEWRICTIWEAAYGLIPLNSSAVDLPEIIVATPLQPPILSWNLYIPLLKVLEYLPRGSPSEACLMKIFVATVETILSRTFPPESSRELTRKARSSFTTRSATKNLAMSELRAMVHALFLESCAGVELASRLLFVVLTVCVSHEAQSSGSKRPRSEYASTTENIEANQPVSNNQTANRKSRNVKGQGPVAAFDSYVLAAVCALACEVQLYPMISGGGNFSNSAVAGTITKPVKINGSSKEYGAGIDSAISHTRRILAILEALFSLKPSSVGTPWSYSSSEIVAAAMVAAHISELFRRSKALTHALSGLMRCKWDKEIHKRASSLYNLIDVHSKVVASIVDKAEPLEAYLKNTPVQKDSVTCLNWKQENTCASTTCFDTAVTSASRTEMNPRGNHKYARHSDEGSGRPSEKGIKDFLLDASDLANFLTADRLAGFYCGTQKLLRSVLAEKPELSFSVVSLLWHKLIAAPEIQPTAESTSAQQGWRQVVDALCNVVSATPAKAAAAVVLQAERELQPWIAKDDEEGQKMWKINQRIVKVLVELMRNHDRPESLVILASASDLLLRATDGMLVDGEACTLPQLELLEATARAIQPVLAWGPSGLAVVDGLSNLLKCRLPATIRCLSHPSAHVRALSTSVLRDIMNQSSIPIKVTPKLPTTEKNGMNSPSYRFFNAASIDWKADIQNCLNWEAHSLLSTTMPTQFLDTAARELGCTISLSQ

Like-named read-outs stand apart in the source and are kept apart here. Results are given in words; binding and its absence hold for the method and conditions named. In cells and extracts the contact can be indirect. Here binding means that the protein was enriched with, or labelled near, the bait; the list need not be complete.

Test [1] addresses ZTL with a YFP tag at the C-terminus, in ZTL-overexpressing plants (ZTL-ox) (Arabidopsis thaliana) (UniProt Q94BT6). Nature of the test: affinity purification with mass spectrometry; IP-MS with an anti-GFP antibody in ZTL-overexpressing plants (ZTL-YFP).
Test [2] shares this target. The test is described as above. This is another data set of the same source.

Take “GIGANTEA (GI) (from UniProt Q9SQI2 1-1173)”: in test [1], the binding result is listed as “binds”.

B1: SnRK2.1 (protein, UniProt P43292 1-353)
chain: MDKYDVVKDLGAGNFGVARLLRHKDTKELVAMKYIERGRKIDENVAREIINHRSLKHPNIIRFKEVILTPTHLAIVMEYASGGELFDRICTAGRFSEAEARYFFQQLICGVDYCHSLQICHRDLKLENTLLDGSPAPLLKICDFGYSKSSILHSRPKSTVGTPAYIAPEVLSRREYDGKHADVWSCGVTLYVMLVGAYPFEDPNDPKNFRKTIQRIMAVQYKIPDYVHISQECKHLLSRIFVTNSAKRITLKEIKNHPWYLKNLPKELLESAQAAYYKRDTSFSLQSVEDIMKIVGEARNPAPSTSAVKSSGSGADEEEEEDVEAEVEEEEDDEDEYEKHVKEAQSCQESDKA
B1: the binding entry in test [2] is listed as “binds”.

B2: CHLH/ABAR (Mg-chelatase H subunit/putative ABA receptor), endogenous (protein, UniProt Q9FNB0 50-1381)
chain: AVSGNGLFTQTNPEVRRIVPIKRDNVPTVKIVYVVLEAQYQSSLSEAVQSLNKTSRFASYEVVGYLVEELRDKNTYNNFCEDLKDANIFIGSLIFVEELAIKVKDAVEKERDRMDAVLVFPSMPEVMRLNKLGSFSMSQLGQSKSPFFQLFKRKKQGSAGFADSMLKLVRTLPKVLKYLPSDKAQDARLYILSLQFWLGGSPDNLQNFVKMISGSYVPALKGVKIEYSDPVLFLDTGIWHPLAPTMYDDVKEYWNWYDTRRDTNDSLKRKDATVVGLVLQRSHIVTGDDSHYVAVIMELEARGAKVVPIFAGGLDFSGPVEKYFVDPVSKQPIVNSAVSLTGFALVGGPARQDHPRAIEALKKLDVPYLVAVPLVFQTTEEWLNSTLGLHPIQVALQVALPELDGAMEPIVFAGRDPRTGKSHALHKRVEQLCIRAIRWGELKRKTKAEKKLAITVFSFPPDKGNVGTAAYLNVFASIFSVLRDLKRDGYNVEGLPENAETLIEEIIHDKEAQFSSPNLNVAYKMGVREYQDLTPYANALEENWGKPPGNLNSDGENLLVYGKAYGNVFIGVQPTFGYEGDPMRLLFSKSASPHHGFAAYYSYVEKIFKADAVLHFGTHGSLEFMPGKQVGMSDACFPDSLIGNIPNVYYYAANNPSEATIAKRRSYANTISYLTPPAENAGLYKGLKQLSELISSYQSLKDTGRGPQIVSSIISTAKQCNLDKDVDLPDEGLELSPKDRDSVVGKVYSKIMEIESRLLPCGLHVIGEPPSAMEAVATLVNIAALDRPEDEISALPSILAECVGREIEDVYRGSDKGILSDVELLKEITDASRGAVSAFVEKTTNSKGQVVDVSDKLTSLLGFGINEPWVEYLSNTKFYRANRDKLRTVFGFLGECLKLVVMDNELGSLMQALEGKYVEPGPGGDPIRNPKVLPTGKNIHALDPQAIPTTAAMASAKIVVERLVERQKLENEGKYPETIALVLWGTDNIKTYGESLGQVLWMIGVRPIADTFGRVNRVEPVSLEELGRPRIDVVVNCSGVFRDLFINQMNLLDRAIKMVAELDEPVEQNFVRKHALEQAEALGIDIREAATRVFSNASGSYSANISLAVENSSWNDEKQLQDMYLSRKSFAFDSDAPGAGMAEKKQVFEMALSTAEVTFQNLDSSEISLTDVSHYFDSDPTNLVQSLRKDKKKPSSYIADTTTANAQVRTLSETVRLDARTKLLNPKWYEGMMSSGYEGVREIEKRLSNTVGWSATSGQVDNWVYEEANSTFIQDEEMLNRLMNTNPNSFRKMLQTFLEANGRGYWDTSAENIEKLKELYSQVEDKIEGIDR
B2: the binding result in test [2] is listed as “binds”.

B3: SnRK2.2 (protein, UniProt Q39192 1-362)
chain: MDPATNSPIMPIDLPIMHDSDRYDFVKDIGSGNFGVARLMTDRVTKELVAVKYIERGEKIDENVQREIINHRSLRHPNIVRFKEVILTPSHLAIVMEYAAGGELYERICNAGRFSEDEARFFFQQLISGVSYCHAMQICHRDLKLENTLLDGSPAPRLKICDFGYSKSSVLHSQPKSTVGTPAYIAPEILLRQEYDGKLADVWSCGVTLYVMLVGAYPFEDPQEPRDYRKTIQRILSVTYSIPEDLHLSPECRHLISRIFVADPATRITIPEITSDKWFLKNLPGDLMDENRMGSQFQEPEQPMQSLDTIMQIISEATIPTVRNRCLDDFMADNLDLDDDMDDFDSESEIDVDSSGEIVYAL
For B3, the binding entry in test [2] is “binds”.
